pIC50: −log10 of the molar value. For part of these data: A negative result means that nothing was seen under these conditions. For part of these data: Tags and fusion partners may be left off the protein sequences shown. For part of these data: For at least one entry, the source does not settle the construct or the ends of the probe. For part of these data: A weaker result is weaker than the reference pair of the same experiment.
Columns and labels:
[1] = target: human MCP-1 (CCL2, natural L-form) (Homo sapiens) (UniProt P13500); test: activity in cells; conditions: L-RNA, purified recombinant protein, protein details: recombinant, Bachem for cell assays, mirror-image nucleic acid
[2] = target: human MCP-1 (CCL2, natural L-form) (Homo sapiens) (UniProt P13500); test: SPR; conditions: L-RNA, 37 C, purified recombinant protein, protein details: recombinant, Bachem for cell assays, mirror-image nucleic acid
[3] = target: murine MCP-1 (CCL2) (Mus musculus) (UniProt P10148); test: activity in cells; conditions: L-RNA, Ca release, purified recombinant protein, mirror-image nucleic acid
[4] = target: T1, human MIP-1alpha (CCL3) (Homo sapiens) (UniProt P10147); test: activity in cells; conditions: L-RNA; no inhibition of MIP-1alpha induced THP-1 chemotaxis up to 1 uM; purified recombinant protein; mirror-image nucleic acid
T1 sequence: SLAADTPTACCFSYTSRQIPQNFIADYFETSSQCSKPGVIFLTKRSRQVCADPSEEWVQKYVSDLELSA

The chains behind the UniProt entries cited, without tags or fusion partners. Residues count along the entry.
UniProt P10148, 24-148: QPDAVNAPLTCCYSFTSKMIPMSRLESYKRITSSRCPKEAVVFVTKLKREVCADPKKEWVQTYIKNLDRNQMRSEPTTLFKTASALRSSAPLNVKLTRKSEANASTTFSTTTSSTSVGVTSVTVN
UniProt P80075, 24-99: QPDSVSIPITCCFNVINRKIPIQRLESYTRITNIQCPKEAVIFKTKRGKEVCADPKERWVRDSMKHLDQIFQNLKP
UniProt P28292, 24-125: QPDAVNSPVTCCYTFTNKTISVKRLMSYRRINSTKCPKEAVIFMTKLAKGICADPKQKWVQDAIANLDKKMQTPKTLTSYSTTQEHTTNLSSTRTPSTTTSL
UniProt P14844, 24-148: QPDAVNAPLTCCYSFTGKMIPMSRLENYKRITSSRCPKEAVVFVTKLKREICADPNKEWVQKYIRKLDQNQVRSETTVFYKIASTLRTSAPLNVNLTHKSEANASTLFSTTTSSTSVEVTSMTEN
UniProt P52203, 24-99: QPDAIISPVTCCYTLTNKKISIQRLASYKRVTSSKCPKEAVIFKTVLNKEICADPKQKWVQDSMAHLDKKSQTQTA
UniProt P51671, 24-97: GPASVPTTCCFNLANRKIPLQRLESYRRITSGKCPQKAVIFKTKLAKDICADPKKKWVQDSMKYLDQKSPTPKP
UniProt P42830, 38-114: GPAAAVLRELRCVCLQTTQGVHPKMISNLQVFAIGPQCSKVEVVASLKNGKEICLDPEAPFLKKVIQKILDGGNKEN
UniProt Q99616, 17-98: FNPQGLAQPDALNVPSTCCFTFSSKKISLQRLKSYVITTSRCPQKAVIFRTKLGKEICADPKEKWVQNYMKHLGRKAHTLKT

[5] = target: porcine MCP-1 (Sus scrofa) (UniProt P42831); test: SPR; conditions: L-RNA, purified recombinant protein, mirror-image nucleic acid
[6] = target: monkey MCP-1 (Macaca mulatta) (UniProt P61275); test: SPR; conditions: L-RNA, 37 C, purified recombinant protein, mirror-image nucleic acid
[7] = target: human MCP-2 (CCL8) (Homo sapiens) (UniProt P80075); test: SPR; conditions: L-RNA, 37 C, purified recombinant protein, mirror-image nucleic acid
[8] = target: rabbit MCP-1 (Oryctolagus cuniculus) (UniProt P28292); test: SPR; conditions: L-RNA, purified recombinant protein, mirror-image nucleic acid
[9] = target: rat MCP-1 (Rattus norvegicus) (UniProt P14844); test: SPR; conditions: L-RNA, not recognized, purified recombinant protein, mirror-image nucleic acid
[10] = target: murine MCP-1 (CCL2) (Mus musculus) (UniProt P10148); test: SPR; conditions: L-RNA, not recognized, purified recombinant protein, mirror-image nucleic acid
[11] = target: canine MCP-1 (Canis familiaris) (UniProt P52203); test: SPR; conditions: L-RNA, purified recombinant protein, mirror-image nucleic acid
[12] = target: human MCP-3 (CCL7) (Homo sapiens) (UniProt P80098); test: SPR; conditions: L-RNA, 37 C, purified recombinant protein, mirror-image nucleic acid
[13] = target: human eotaxin (CCL11) (Homo sapiens) (UniProt P51671); test: SPR; conditions: L-RNA, 37 C, purified recombinant protein, mirror-image nucleic acid
[14] = target: human ENA-78 (CXCL5) (Homo sapiens) (UniProt P42830); test: SPR; conditions: L-RNA; 100 nM chemokine, 37 C; panel membership from sequence table; purified recombinant protein; label: 5'-biotin; synthetic backbone; mirror-image nucleic acid
[15] = target: T2, human Lymphotactin (XCL1) (Homo sapiens) (UniProt P47992); test: SPR; conditions: L-RNA; 100 nM chemokine, 37 C; panel membership from sequence table; purified recombinant protein; label: 5'-biotin; synthetic backbone; mirror-image nucleic acid
T2 sequence: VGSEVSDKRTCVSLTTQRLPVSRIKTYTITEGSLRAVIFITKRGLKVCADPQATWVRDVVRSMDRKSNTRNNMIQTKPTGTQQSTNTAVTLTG

[16] = target: human SDF-1alpha (CXCL12alpha) (Homo sapiens) (UniProt P48061); test: SPR; conditions: L-RNA; 100 nM chemokine, 37 C; panel membership from sequence table; purified recombinant protein; label: 5'-biotin; synthetic backbone; mirror-image nucleic acid
[17] = target: T3, human NAP-2 (CXCL7) (Homo sapiens) (UniProt P02775); test: SPR; conditions: L-RNA; immobilized aptamer, 100 nM chemokine, 37 C; purified recombinant protein; label: 5'-biotin; mirror-image nucleic acid; variant of NOX-E36 (180-D1-036)
T3 sequence (limits assumed): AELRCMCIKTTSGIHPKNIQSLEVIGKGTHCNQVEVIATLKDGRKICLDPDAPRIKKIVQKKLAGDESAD

[18] = target: T4, human MIP-1beta (CCL4) (Homo sapiens) (UniProt P13236); test: SPR; conditions: L-RNA; 100 nM chemokine, 37 C; panel membership from sequence table; purified recombinant protein; label: 5'-biotin; synthetic backbone; mirror-image nucleic acid
T4 sequence: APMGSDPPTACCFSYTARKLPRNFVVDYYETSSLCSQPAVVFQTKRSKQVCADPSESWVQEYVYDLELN

[19] = target: T5, human PF4 (CXCL4) (Homo sapiens) (UniProt P02776); test: SPR; conditions: L-RNA; 100 nM chemokine, 37 C; panel membership from sequence table; purified recombinant protein; label: 5'-biotin; synthetic backbone; mirror-image nucleic acid
T5 sequence: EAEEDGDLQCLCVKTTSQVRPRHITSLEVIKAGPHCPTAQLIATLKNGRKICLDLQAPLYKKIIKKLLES

[20] = target: T6, human Fractalkine (CX3CL1) (Homo sapiens) (UniProt P78423); test: SPR; conditions: L-RNA; 100 nM chemokine, 37 C; panel membership from sequence table; purified recombinant protein; label: 5'-biotin; synthetic backbone; mirror-image nucleic acid
T6 sequence: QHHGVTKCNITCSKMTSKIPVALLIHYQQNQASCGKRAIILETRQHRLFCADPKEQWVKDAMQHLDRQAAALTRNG

[21] = target: T1, human MIP-1alpha (CCL3) (Homo sapiens); test: SPR; conditions: L-RNA; immobilized aptamer, 100 nM chemokine, 37 C; purified recombinant protein; label: 5'-biotin; mirror-image nucleic acid; variant of NOX-E36 (180-D1-036)
[22] = target: T7, human RANTES (CCL5) (Homo sapiens) (UniProt P13501); test: SPR; conditions: L-RNA; 100 nM chemokine, 37 C; panel membership from sequence table; purified recombinant protein; label: 5'-biotin; synthetic backbone; mirror-image nucleic acid
T7 sequence: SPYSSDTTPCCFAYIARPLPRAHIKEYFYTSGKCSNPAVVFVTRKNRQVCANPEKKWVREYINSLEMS

[23] = target: T8, human I-TAC (CXCL11) (Homo sapiens) (UniProt O14625); test: SPR; conditions: L-RNA; 100 nM chemokine, 37 C; panel membership from sequence table; purified recombinant protein; label: 5'-biotin; synthetic backbone; mirror-image nucleic acid
T8 sequence: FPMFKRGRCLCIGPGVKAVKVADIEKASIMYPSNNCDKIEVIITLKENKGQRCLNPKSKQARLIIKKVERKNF

[24] = target: human MCP-4 (CCL13) (Homo sapiens) (UniProt Q99616); test: SPR; conditions: L-RNA; 100 nM chemokine, 37 C; kinetics in FIG. 24C only; purified recombinant protein; label: 5'-biotin; synthetic backbone; mirror-image nucleic acid
[25] = target: human GROgamma (CXCL3) (Homo sapiens) (UniProt P19876); test: SPR; conditions: L-RNA; 100 nM chemokine, 37 C; panel membership from sequence table; purified recombinant protein; label: 5'-biotin; synthetic backbone; mirror-image nucleic acid
[26] = target: human IL-8 (CXCL8) (Homo sapiens) (UniProt P10145); test: SPR; conditions: L-RNA; 100 nM chemokine, 37 C; panel membership from sequence table; purified recombinant protein; label: 5'-biotin; synthetic backbone; mirror-image nucleic acid
[27] = target: T9, human I-309 (CCL1) (Homo sapiens) (UniProt P22362); test: SPR; conditions: L-RNA; 100 nM chemokine, 37 C; panel membership from sequence table; purified recombinant protein; label: 5'-biotin; synthetic backbone; mirror-image nucleic acid
T9 sequence: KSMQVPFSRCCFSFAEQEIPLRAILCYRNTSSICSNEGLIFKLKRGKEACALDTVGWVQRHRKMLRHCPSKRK

[28] = target: human IP-10 (CXCL10) (Homo sapiens) (UniProt P02778); test: SPR; conditions: L-RNA; 100 nM chemokine, 37 C; panel membership from sequence table; purified recombinant protein; label: 5'-biotin; synthetic backbone; mirror-image nucleic acid
[29] = target: human SDF-1beta (CXCL12beta) (Homo sapiens) (UniProt P48061); test: SPR; conditions: L-RNA; 100 nM chemokine, 37 C; panel membership from sequence table; purified recombinant protein; label: 5'-biotin; synthetic backbone; mirror-image nucleic acid
[30] = target: T10, human HCC-1 (CCL14) (Homo sapiens) (UniProt Q16627); test: SPR; conditions: L-RNA; 100 nM chemokine, 37 C; panel membership from sequence table; purified recombinant protein; label: 5'-biotin; synthetic backbone; mirror-image nucleic acid
T10 sequence: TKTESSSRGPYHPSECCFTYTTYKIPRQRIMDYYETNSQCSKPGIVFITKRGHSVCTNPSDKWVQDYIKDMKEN

[31] = range stated for 181-A2 and its derivatives, variant of 181-A2 Spiegelmer
[32] = range for human, monkey, porcine, canine MCP-1, 37 C
[33] = much lower affinity than human MCP-1, variant of 181-A2 Spiegelmer
[34] = immobilized aptamer, 100 nM chemokine, label: 5'-biotin, variant of NOX-E36 (180-D1-036)

Sequence: GCACGUCCCUCACCGGUGCAAGUGAAGCCGUGGCUCUGCG [NOX-E36-5'PEG]
- pIC50 ([1]; 5'-PEG 40 kDa, Ca release, chemotaxis IC50 <1 nM (FIG. 27B), variant of NOX-E36 (180-D1-036)): 8.52

Sequence: GUGCGCGUAGUGAGAAACUACCAACGACUGGCUAGAGCCGGCGCAC [181-A2-002]
- binding result [2, 31]: binds

Sequence: GGCGACAUUGGUUGGGCAUGAGGCGAGGCCCUUUGAUGAAUCCGCGGCCA [mNOX-E36-3'PEG]
- pIC50 ([3]; 3'-PEG, chemotaxis IC50 approx 3 nM (FIG. 31), variant of mNOX-E36 (188-A3-007)): 8.10

Sequence: CUGCGUAGUGAGAAACUACCAACGACUGGCUAGAGCCGGCAG [181-A2-023]
- binding result [2, 31]: binds

Sequence: GUGCUGCGUAGUGAGAAACUACCAACGACUGGCUAGAGCCGGCAGCAC [181-A2 Spiegelmer]
- pIC50 ([1]; Ca release and chemotaxis): 9.30
- binding result [2]: binds

Sequence: GCACGUCCCUCACCGGUGCAAGUGAAGCCGUGGCUCUGCG [NOX-E36 (180-D1-036)]
- pIC50 ([1]; THP-1 chemotaxis, 0.5 nM MCP-1): 9.30
- functional effect of the aptamer [4]: not active
- binding result [5, 32]: binds
- binding result ([6]; range for human, monkey, porcine, canine MCP-1): binds
- binding result [7]: binds
- binding result ([8]; not recognized): no binding
- binding result [9]: no binding
- binding result [10]: no binding
- binding result [11, 32]: binds
- binding result ([12]; not recognized): no binding
- binding result [13]: binds

Sequence: GGGCGUAGUGAGAAACUACCAACGACUGGCUAGAGCCGGCCC [181-A2-018]
- binding result [5, 33]: binds more weakly
- binding result ([6]; range for human and monkey MCP-1, variant of 181-A2 Spiegelmer): binds
- binding result ([7]; variant of 181-A2 Spiegelmer): binds
- binding result [8, 33]: binds more weakly
- binding result ([9]; variant of 181-A2 Spiegelmer): no binding
- binding result ([10]; variant of 181-A2 Spiegelmer): no binding
- binding result [11, 33]: binds more weakly
- binding result ([12]; variant of 181-A2 Spiegelmer): binds
- binding result ([13]; variant of 181-A2 Spiegelmer): binds

Sequence: GCACGUCCCUCACCGGUGCAAGUGAAGCCGUGGCUCUGCG [NOX-E36-3'PEG]
- pIC50 ([1]; 3'-PEG 40 kDa, Ca release, chemotaxis IC50 <1 nM (FIG. 26), variant of NOX-E36 (180-D1-036)): 8.52

Sequence: GUGCGUAGUGAGAAACUACCAACGACUGGCUAGAGCCGGCAC [181-A2-017]
- binding result [2, 31]: binds

Sequence: GUCGCGUAGUGAGAAACUACCAACGACUGGCUAGAGCCGGCGAC [181-A2-006]
- binding result [2, 31]: binds

Sequence: UGCGCGUAGUGAGAAACUACCAACGACUGGCUAGAGCCGGCGCA [181-A2-007]
- binding result [2, 31]: binds

Sequence: CCGCGUAGUGAGAAACUACCAACGACUGGCUAGAGCCGGCGG [181-A2-021]
- binding result [2, 31]: binds

Sequence: GAGCGUAGUGAGAAACUACCAACGACUGGCUAGAGCCGGCUC [181-A2-019]
- binding result [2, 31]: binds

Sequence: GUGCCGUAGUGAGAAACUACCAACGACUGGCUAGAGCCGGGCAC [181-A2-004]
- binding result [2, 31]: binds

Sequence: GGCGACAUUGGUUGGGCAUGAGGCGAGGCCCUUUGAUGAAUCCGCGGCCA [mNOX-E36 (188-A3-007)]
- pIC50 ([3]; chemotaxis IC50 approx 7 nM (FIG. 16)): 7.92

Sequence: GCACGUCCCUCACCGGUGCAAGUGAAGCCGUGGCUCUGCG [biotinylated NOX-E36]
- binding result [14]: no binding
- binding result [15]: no binding
- binding result [16]: no binding
- binding result [7, 34]: binds
- binding result [17]: binds
- binding result [18]: no binding
- binding result [19]: no binding
- binding result [2, 34]: binds
- binding result [20]: no binding
- binding result [21]: binds
- binding result [22]: no binding
- binding result [23]: no binding
- binding result [24]: no binding
- binding result [25]: no binding
- binding result [26]: no binding
- binding result [27]: no binding
- binding result [28]: no binding
- binding result [29]: no binding
- binding result [30]: no binding
- binding result [13, 34]: binds

Sequence: CGGCGUAGUGAGAAACUACCAACGACUGGCUAGAGCCGGCCG [181-A2-020]
- binding result [2, 31]: binds

Sequence: GUGGCGUAGUGAGAAACUACCAACGACUGGCUAGAGCCGGCCAC [181-A2-005]
- binding result [2, 31]: binds

Sequence: GUGCUGCGUAGUUAAAAACUACCAGCGACUGGCUAGAGCCGGCAGCAC [178-D5 Spiegelmer]
- pIC50 ([1]; Ca release and chemotaxis): 9.30

Source: US20090156542
